These are yes or no findings as the source states them, for the method shown. Binding seen in cells or lysates may run through a third protein. Some entries that bind do so weakly or less than the wild type. Where a sequence is shown, tags or fusion partners need not be part of it.
Biological target: T1, OsRPA2c-GST (rice (Oryza sativa L.)) (UniProt Q5Z8L1)
T1 sequence: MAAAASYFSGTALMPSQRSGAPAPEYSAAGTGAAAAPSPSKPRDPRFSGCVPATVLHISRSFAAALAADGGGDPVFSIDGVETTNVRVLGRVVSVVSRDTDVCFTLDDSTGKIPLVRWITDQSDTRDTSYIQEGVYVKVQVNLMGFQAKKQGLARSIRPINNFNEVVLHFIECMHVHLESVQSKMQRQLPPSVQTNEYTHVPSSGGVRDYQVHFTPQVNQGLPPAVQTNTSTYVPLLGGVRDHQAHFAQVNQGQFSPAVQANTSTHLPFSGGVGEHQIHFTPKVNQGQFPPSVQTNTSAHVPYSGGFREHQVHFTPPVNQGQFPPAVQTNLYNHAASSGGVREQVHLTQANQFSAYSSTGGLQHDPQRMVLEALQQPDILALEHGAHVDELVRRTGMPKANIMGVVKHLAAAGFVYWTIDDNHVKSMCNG
Assay: pull-down; OsRPA2C–GST-coupled beads used to capture MBP fusions (methods); result in Supplementary Fig. S10, whose method the text does not name

B1: MBP–OsRPA1c (protein, UniProt Q65XV7 1-951)
chain: MEPQLTPGAVQAIAEHPDGTGTIQPVLQVVDVRPVTTKNAPPTPKPAERFRMMLSDGVNTQQSMLATALNPLVKDATLRPGTVVQLTDFMCNTIQGKRIIIVVKLDVLQNDCIVIGNPKHYEPKSLTKEQDPNLQASVAQTNNGTYSGGASMLGPSVAPRAEQAASNSSYGGPYNSAQGMLGSSIGRTVEPGPANVSAVGSYGAISAQNTTNANMMQPTSQLNIMNANTMQPTSQLNTMNANTMQPTSQLSSLNPNQNQRFAAPASGGVFGPPGNAYGQPSRPSYQQPPPVYMNRGPASRNDSATRIIPITALNPYQPKWTIKARVTAKSDIRHWSNARSSGTVFSFDLLDAQGGEIRAQCWKESADKFFGQIEVGRVYLISRGSLKPAQKKYNTLNHDYEITLDIGLSTVEVCSDDDNSIPRLQYNFRQISELENMANETIVDLLGVVTSVSPSATIMRKIGTETRKRSIQLKDLSGRSIEVTLWGNFCDAEGQQLQLQCDSGSNPIIAFKGARVGDFNGKSVSTIGSTQLIINPDFPEVERLRQWYMTEGKTAPCISLSREMLNMGRTDARKTIAQIKDENLGRLEKPDWITVKAAISHVTTESFCYPACPKLLPVGRQCNKKAINNGDGMWHCDRCDESFQNPEYRYMLRFQIQDHTGSTYASAFDEAGEQIFGRKAGELFSIRNVDQDDAQFAEIIEGVRWHLYLFKLKVKEETYNDEQSLKCTAVKVEKLDPSKESNVLLGAIDNLLLDPKGQSDLAPNAGFTDPVGGHGAPTSSNAYAMNTGGVNQFGQQASISAGMSTPLAATRNLQTCSICGANGHSAQICHVGADMDMQETSAGGSSMGNYNSIAGNGSSECYKCKQPGHYARDCPGQSTGGLECFKCKQPGHFSRDCPVQSTGGSECFKCKQPGHFARDCPGQSTGAQHQTYGNNVAASRGYNRQSFVGGY
binding: binds

Reference: article PMC4762385
